Source: publication PMC5474747
These are yes or no findings as the source states them, for the method shown. Binding seen in cells or lysates may run through a third protein. Binding can be weak; no strength is given. Where a sequence is shown, tags or fusion partners need not be part of it.

The chains behind the UniProt entries cited, without tags or fusion partners. Where a name states a change or a piece, a line headed by the entry shows the natural chain unless it says otherwise.
UniProt Q05930: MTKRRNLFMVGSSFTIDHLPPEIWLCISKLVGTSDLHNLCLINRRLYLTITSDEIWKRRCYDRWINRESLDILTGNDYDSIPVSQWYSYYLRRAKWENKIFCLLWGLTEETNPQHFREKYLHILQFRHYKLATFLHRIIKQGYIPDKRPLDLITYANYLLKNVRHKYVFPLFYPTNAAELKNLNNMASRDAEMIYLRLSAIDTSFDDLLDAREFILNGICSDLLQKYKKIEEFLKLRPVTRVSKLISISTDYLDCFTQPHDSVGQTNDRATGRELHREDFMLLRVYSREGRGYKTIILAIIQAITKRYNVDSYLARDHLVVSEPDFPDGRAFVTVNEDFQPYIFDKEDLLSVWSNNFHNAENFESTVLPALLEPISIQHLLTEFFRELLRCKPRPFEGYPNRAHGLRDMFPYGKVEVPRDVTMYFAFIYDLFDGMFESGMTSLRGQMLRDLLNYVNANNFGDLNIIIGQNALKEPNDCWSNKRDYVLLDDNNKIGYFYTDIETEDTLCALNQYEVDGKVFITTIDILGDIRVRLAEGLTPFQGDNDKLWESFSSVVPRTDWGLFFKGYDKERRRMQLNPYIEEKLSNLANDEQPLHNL

Biological target: F-box mutant of Mdm30-Myc (S. cerevisiae) (UniProt Q05930)
Assay: co-IP; lysates of ubp2Δ mdm30Δ yeast co-expressing Ubp2-HA and Mdm30-Myc (WT or F-box mutant); anti-Myc (9E10) or mock on protein G-Sepharose, 2 h at 4 °C; IP buffer 100 mM Tris pH 7.5, 100 mM NaCl, 0.6% Triton X-100, 10% glycerol; anti-HA immunoblot; also done in the presence or absence of Rup1

binding: binds
B1: Ubp2 tagged with six HA C-terminal epitopes (Ubp2-HA) (enzyme, UniProt Q01476 1-1272)
chain: MPNEDNELQKAIENHHNQLLNQDKENADRNGSVIEDLPLYGTSINQQSTPGDVDDGKHLLYPDIATNLPLKTSDRLLDDILCDTIFLNSTDPKVMQKGLQSRGILKESMLSYSTFRSSIRPNCLGSLTDQVVFQTKSEYDSISCPKYNKIHVFQAVIFNPSLAEQQISTFDDIVKIPIYHLKVSVKVRQELERLKKHVGVTQFHSLDHLHEYDRVDLSTFDSSDPNLLDYGIYVSDDTNKLILIEIFKPEFNSPEEHESFTADAIKKRYNAMCVKNESLDKSETPSQVDCFYTLFKIFKGPLTRKSKAEPTKTIDSGNLALNTHLNPEWLTSKYGFQASSEIDEETNEIFTEYVPPDMVDYVNDLETRKIRESFVRKCLQLIFWGQLSTSLLAPNSPLKNTKSVKGMSSLQTSFSTLPWFHLLGESRARILLNSNEQTHSPLDAEPHFINLSVSHYYTDRDIIRNYESLSSLDPENIGLYFDALTYIANRKGAYQLIAYCGKQDIIGQEALENALLMFKINPKECNISELNEATLLSIYKYETSNKSQVTSNHLTNLKNALRLLAKYTKSDKLKFYVDHEPYRALSQAYDTLSIDESVDEDIIKTAYSVKINDSPGLKLDCDRALYTIAISKRSLDLFNFLTEECPQFSNYYGPEKLDYQEALKLLQVNENASDETILKIFKQKWFDENVYEPDQFLILRAALTKISIERNSTLITNFLLTGTIDPNSLPPENWPTGINNIGNTCYLNSLLQYYFSIAPLRRYVLEYQKTVENFNDHLSNSGHIRRIGGREISRGEVERSIQFIYQLRNLFYAMVHTRERCVTPSKELAYLAFAPSNVEVEFEVEGNKVVDQTGVLSDSKKETTDDAFTTKIKDTSLIDLEMEDGLNGDVGTDANRKKNESNDAEVSENEDTTGLTSPTRVAKISSDQLENALEMGRQQDVTECIGNVLFQIESGSEPIRYDEDNEQYDLVKQLFYGTTKQSIVPLSATNKVRTKVERFLSLLINIGDHPKDIYDAFDSYFKDEYLTMEEYGDVIRTVAVTTFPTILQVQIQRVYYDRERLMPFKSIEPLPFKEVIYMDRYADTENPLLLAKKKETEEMKQKLKVMKNRQRELLSRDDSGLTRKDAFLESIKLLESDTIKKTPLKIEAANDVIKTLRNNVQNIDNELMKLYNDINSLEEKISHQFDDFKEYGYSLFSVFIHRGEASYGHYWIYIKDRNRNGIWRKYNDETISEVQEEEVFNFNEGNTATPYFLVYVKQGQEGDIEPLKRILK
